These results are taken from patent US7531506B2 (Pharma Mar, S.A., priority 2001, dated 2009).

A short description of this data set: general procedure: Fmoc solid-phase peptide synthesis; 2-chlorotrityl chloride polystyrene resin.

“Cyclo[D-Phe-Tzn-Thr(rPr)-Ser(rPr)-Ile-Ala-Pro]” registered a step yield (late stage modification step) of 33% yield.
In the case of “H-D-Phe(S)-Ser-Thr(rPr)-Ser(rPr)-Ile-Ala-Pro-OH”, for the setting “whole synthesis, HPLC (Nucleosil C18)”, the “crude HPLC purity” value is recorded as over 63%.
